Laboratory results from article PMC8705818, “Experimental Characterization of the Interaction between the N-Terminal SH3 Domain of Crkl and C3G” (International Journal of Molecular Sciences, 2021).
These are yes or no findings as the source states them, for the method shown. A result given as binding can be weak or reduced; the word gives no strength.

Columns and labels:
[1] = target: N-SH3 domain of Crkl, D138A variant; experiment: stopped-flow kinetics (FRET, Trp to dansyl); variants, ionic strength series: 0.5 µM dansyl peptide mixed with 2.0-4.5 µM N-SH3 variant; KD = koff/kon; 50 mM Hepes pH 7.5, 0 M NaCl, 10 °C; both purified
[2] = target: N-SH3 domain of Crkl, E140A variant; experiment: as above
[3] = target: N-SH3 domain of Crkl, D141A variant; experiment: stopped-flow displacement kinetics; preincubated complex of D141A N-SH3 (2 µM) and dansyl-C3G (10 µM) mixed with excess nondansylated C3G (50 µM); Hepes 50 mM pH 7.0 with 20% w/v sucrose; both purified
[4] = target: N-terminal SH3 domain of Crkl, wild type; experiment: stopped-flow kinetics (FRET, Trp to dansyl); ionic strength series: 0.5 µM dansyl peptide mixed with 1-5 µM N-SH3; koff from displacement with excess nondansylated peptide; KD = koff/kon; Hepes 50 mM pH 7.0, 0 M NaCl, 10 °C; both purified

binding [1]: binds
binding [2]: binds
binding [3]: binds
binding [4]: binds
B1: nondansylated C3G_(277–296) peptide (peptide)
peptide: VVDNSPPPALPPKKRQSAPS
